This is one part of the list. The data scatter; read single values as rough.
Assays:
[1] = compound: ClCC(=O)N[C@@H]1CCCc2ccccc12; test: log2 mean competition ratio of IA-DTB cysteine labelling (DMSO/compound) (log2 ratio); higher = stronger cysteine engagement by compound; settings: treatment time: 4 h, cell line lysate: HEK293T
Description: (§1)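 IA-DTB competitive cysteine chemoproteomics in HEK293T RIPA lysate. Lysates were treated with compound 29 or 30 at 50 or 200 µM for 4 h, then IA-DTB (500 µM, 1 h), trypsin-digested, NeutrAvidin-enriched and analysed by diaPASEF. Competition ratio = intensity DMSO / intensity compound (n=4 treated, n=64 DMSO); binding: mean log2 CR ≥ 1 and p ≤ 0.05 plus QC filters. Target is the cysteine site.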

Chains of the proteins cited; added tags and fusions are not shown. Lines headed by an entry give the natural chain unless they say otherwise; changes in a name come on top.
UniProt Q86YB8: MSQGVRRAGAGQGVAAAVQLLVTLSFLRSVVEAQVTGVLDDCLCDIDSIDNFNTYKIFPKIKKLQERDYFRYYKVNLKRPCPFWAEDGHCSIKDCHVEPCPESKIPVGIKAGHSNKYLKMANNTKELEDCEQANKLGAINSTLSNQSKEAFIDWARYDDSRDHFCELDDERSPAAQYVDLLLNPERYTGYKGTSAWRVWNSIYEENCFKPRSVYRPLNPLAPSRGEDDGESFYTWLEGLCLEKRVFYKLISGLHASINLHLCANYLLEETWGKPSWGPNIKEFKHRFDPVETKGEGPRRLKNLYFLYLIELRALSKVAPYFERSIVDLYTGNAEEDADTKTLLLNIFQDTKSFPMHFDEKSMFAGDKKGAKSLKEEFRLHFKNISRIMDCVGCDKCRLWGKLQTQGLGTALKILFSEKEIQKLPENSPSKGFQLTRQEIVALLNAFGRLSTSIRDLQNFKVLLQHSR
UniProt O95163: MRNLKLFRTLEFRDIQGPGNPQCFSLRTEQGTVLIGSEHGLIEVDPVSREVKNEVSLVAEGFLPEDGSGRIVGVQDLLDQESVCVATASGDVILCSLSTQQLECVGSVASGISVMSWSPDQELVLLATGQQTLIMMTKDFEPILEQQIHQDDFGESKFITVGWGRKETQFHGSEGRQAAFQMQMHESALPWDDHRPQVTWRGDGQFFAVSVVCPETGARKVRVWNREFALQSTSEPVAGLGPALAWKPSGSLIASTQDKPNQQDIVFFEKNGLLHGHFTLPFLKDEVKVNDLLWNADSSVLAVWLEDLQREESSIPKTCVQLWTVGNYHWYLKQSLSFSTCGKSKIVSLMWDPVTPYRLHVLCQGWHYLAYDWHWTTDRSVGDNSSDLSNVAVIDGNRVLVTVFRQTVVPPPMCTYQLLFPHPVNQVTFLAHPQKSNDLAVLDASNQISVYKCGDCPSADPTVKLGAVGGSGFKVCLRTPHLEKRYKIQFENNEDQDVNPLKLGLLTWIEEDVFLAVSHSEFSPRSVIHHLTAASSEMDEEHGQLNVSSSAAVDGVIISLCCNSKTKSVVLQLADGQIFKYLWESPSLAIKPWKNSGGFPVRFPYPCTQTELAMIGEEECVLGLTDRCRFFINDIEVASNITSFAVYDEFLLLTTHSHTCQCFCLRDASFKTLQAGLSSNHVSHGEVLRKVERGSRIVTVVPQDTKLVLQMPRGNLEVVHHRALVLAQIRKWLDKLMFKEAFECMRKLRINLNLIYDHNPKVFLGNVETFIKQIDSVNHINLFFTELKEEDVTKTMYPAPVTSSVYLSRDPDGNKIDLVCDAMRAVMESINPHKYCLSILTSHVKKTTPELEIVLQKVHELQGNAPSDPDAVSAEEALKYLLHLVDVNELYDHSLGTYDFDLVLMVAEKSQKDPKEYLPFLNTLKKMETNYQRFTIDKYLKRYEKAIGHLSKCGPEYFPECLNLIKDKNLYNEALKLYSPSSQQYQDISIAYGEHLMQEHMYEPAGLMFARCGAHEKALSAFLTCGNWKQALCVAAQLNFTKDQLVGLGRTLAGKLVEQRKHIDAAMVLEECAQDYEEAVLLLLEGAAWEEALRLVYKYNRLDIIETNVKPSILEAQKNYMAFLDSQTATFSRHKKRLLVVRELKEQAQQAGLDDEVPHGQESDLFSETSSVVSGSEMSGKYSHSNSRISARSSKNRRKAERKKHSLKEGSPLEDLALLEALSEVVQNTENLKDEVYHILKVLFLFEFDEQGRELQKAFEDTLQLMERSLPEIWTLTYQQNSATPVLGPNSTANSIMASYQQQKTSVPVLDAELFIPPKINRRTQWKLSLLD
UniProt Q14249: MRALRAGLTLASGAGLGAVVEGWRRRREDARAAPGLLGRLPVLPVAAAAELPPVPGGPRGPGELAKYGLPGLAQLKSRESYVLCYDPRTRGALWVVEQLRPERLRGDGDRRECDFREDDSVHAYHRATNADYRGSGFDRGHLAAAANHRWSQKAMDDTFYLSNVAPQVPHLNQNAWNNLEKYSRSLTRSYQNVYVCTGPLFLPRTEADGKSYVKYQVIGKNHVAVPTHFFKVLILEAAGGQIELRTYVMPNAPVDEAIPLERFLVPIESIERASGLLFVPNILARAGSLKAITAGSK
UniProt Q92520: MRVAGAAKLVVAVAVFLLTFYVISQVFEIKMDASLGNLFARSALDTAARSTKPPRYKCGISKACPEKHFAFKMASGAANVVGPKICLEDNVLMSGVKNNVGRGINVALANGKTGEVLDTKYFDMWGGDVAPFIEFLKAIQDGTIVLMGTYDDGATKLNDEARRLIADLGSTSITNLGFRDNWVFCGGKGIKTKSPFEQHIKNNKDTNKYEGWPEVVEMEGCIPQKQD

[2] = compound: ClCC(=O)N[C@H]1CCCc2ccccc12; test: as above; settings: treatment time: 4 h, cell line lysate: HEK293T
Description: as §1

Target | log2 mean competition ratio ([1]; 50 µM) | log2 mean competition ratio ([2]; 50 µM) | log2 mean competition ratio ([2]; 200 µM) | log2 mean competition ratio ([1]; 200 µM)
ERO1B C165 (UniProt Q86YB8) | 0.163 | -0.422 | 0.54 | 
ERCC2 C155 (UniProt P18074) | -0.0352 | -0.0804 | 0.0163 | 0.136
ELP1 C341 (UniProt O95163) | -0.0619 | 0.46 | -0.111 | -0.141
ENDOG C113 (UniProt Q14249) | 0.0613 | -0.142 | 0.11 | 0.107
FAM3C C185 (UniProt Q92520) | 0.059 | 0.213 | 0.23 | -0.067
